No constants are given. Whether binding was seen depends on the method and setting. In cells and extracts the contact can be indirect. Binding can be weak; no strength is given.

Amino acid sequences for entries named in this document (tags omitted). A change or cut given only in a name is not applied to a line headed by its entry.
UniProt Q17740: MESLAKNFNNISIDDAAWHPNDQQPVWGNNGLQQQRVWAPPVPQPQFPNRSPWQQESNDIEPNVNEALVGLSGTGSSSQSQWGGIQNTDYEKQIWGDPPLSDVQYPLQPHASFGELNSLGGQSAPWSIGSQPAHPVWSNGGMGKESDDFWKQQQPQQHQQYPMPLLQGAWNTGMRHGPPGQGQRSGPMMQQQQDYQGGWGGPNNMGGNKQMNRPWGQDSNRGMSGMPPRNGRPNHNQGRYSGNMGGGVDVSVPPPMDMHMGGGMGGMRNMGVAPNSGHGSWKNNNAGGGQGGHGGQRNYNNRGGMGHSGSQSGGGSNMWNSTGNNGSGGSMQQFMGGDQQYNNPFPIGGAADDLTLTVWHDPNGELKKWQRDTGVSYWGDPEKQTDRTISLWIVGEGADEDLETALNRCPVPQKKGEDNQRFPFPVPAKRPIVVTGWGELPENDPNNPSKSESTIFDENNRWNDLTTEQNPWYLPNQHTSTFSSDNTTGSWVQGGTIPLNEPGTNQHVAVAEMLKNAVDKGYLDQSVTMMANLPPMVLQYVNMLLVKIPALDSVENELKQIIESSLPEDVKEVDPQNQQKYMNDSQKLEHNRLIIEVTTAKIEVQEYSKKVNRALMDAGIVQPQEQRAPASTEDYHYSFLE

Assay [1] concerns the target T1, PAB-1 (C. elegans cytoplasmic poly(A)-binding protein 1) (C. elegans (endogenous in embryos)) (UniProt Q9U302).
T1 sequence: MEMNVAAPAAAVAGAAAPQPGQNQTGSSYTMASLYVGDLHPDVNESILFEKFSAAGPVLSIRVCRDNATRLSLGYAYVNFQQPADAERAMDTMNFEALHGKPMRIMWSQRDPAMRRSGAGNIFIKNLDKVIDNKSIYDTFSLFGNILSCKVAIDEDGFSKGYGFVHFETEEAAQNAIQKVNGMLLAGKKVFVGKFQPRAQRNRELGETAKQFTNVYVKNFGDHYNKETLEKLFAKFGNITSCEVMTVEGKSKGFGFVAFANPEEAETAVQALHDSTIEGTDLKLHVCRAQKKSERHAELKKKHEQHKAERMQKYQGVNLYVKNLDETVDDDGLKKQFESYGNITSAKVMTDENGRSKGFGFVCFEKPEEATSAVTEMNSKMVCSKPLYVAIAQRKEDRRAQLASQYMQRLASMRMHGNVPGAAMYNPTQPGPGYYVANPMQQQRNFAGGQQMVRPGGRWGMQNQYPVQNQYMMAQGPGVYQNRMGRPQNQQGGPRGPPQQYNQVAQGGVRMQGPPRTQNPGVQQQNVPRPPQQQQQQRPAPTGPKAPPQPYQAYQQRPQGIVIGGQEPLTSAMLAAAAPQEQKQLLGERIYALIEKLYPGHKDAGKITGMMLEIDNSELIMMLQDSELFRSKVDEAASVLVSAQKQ
The assay is described as follows: pull-down; proteins of pab-2(ok1851) embryonic S10 lysate (no PAB-2) co-purified with PAB-1, which was pulled down through its ligand GST-PAIP2 on Glutathione-Sepharose beads; 0.1 ng/µl RNase A; western blot. On the technique in general: A western blot detects proteins with antibodies after separation by electrophoresis.

The target of assay [2] is T1, PAB-1 (C. elegans cytoplasmic poly(A)-binding protein 1) (C. elegans (endogenous in embryos)). Kind of assay: pull-down; proteins of WT (N2) embryonic S10 lysate co-purified with PAB-1/PAB-2, which were pulled down through their ligand GST-PAIP2 on Glutathione-Sepharose beads; 1 h at 4°C; 0.1 ng/µl RNase A; western blot; RNase A or MNase treatment did not impinge on co-purification.

Take “AIN-1 (C. elegans homolog of GW182) (from UniProt Q17740)”: the binding result in assay [1] was “binds”.
For the substance “IFG-1 (eIF4G homolog) (C. elegans (endogenous in embryos))”, the binding result in assay [2] is “binds”.

Source of the values: publication PMC4937315.
